Experimental data as given in paper PMC9440387.
Results are given in words; binding and its absence hold for the method and conditions named. Binding seen in cells or lysates may run through a third protein. A yes stands for co-enrichment or nearness to the bait. Other partners may have been found. Sequences can lack the tags named with a protein.

Amino acid sequences for entries named in this document (tags omitted). A change or cut given only in a name is not applied to a line headed by its entry.
UniProt P29590: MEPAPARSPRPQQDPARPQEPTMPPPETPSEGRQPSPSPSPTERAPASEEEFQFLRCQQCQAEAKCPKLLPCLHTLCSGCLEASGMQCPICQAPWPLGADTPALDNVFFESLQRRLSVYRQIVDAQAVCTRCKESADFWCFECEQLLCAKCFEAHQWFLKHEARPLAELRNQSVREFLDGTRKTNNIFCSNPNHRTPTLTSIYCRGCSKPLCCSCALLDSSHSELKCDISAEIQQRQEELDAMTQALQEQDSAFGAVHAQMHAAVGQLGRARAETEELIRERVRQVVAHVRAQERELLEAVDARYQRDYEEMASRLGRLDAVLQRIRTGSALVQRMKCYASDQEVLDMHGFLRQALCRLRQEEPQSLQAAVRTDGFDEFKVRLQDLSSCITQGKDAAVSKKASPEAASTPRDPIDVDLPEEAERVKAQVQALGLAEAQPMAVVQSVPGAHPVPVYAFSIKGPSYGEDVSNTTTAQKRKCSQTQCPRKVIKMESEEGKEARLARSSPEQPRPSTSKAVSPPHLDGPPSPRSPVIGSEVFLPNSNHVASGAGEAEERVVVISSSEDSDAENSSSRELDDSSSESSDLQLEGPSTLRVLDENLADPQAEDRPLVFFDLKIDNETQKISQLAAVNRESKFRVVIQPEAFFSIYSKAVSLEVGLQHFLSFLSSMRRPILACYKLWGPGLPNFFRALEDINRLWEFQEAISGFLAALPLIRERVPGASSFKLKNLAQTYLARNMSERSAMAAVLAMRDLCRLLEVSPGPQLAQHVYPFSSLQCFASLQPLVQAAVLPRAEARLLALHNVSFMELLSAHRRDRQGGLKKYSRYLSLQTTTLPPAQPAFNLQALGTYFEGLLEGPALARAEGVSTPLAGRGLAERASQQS
UniProt Q16763: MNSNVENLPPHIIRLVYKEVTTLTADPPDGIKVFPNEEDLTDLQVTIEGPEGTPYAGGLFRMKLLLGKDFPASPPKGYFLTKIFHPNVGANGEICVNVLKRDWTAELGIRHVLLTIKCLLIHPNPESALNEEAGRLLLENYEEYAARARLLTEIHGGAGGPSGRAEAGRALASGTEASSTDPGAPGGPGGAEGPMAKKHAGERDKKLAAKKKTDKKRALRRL
UniProt Q9UNE7: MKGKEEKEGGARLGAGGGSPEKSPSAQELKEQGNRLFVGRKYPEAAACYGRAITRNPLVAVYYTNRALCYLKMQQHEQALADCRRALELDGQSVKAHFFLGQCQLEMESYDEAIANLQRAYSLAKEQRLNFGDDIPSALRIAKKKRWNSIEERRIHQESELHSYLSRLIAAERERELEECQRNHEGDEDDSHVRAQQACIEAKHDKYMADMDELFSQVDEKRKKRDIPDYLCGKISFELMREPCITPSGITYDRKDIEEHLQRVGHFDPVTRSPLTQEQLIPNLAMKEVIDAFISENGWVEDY
UniProt Q9UJX4: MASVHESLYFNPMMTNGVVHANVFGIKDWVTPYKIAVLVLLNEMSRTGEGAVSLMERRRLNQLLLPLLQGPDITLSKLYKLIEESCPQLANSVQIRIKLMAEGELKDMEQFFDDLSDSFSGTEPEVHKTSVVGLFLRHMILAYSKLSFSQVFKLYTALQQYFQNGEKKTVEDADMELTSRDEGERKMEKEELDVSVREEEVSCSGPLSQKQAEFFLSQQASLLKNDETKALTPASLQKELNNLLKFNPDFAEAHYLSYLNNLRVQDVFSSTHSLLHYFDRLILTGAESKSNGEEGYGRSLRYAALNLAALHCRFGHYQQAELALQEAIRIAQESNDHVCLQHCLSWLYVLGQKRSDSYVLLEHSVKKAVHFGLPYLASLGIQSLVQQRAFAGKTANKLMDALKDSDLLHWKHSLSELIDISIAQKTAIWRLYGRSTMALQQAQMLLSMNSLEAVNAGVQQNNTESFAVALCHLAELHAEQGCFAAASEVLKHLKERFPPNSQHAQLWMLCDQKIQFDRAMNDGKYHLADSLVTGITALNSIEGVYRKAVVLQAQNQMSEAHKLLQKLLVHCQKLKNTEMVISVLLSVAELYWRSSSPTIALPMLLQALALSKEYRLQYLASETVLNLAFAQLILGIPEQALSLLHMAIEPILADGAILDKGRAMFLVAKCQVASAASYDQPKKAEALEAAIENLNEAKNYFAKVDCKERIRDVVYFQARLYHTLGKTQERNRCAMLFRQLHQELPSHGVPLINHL

T1: F-box/WD40 repeat-containing protein Fbxw24 (mouse), 3xFLAG-tagged, overexpressed in HEK-293T (mouse) (UniProt E9PXM9)
T1 sequence: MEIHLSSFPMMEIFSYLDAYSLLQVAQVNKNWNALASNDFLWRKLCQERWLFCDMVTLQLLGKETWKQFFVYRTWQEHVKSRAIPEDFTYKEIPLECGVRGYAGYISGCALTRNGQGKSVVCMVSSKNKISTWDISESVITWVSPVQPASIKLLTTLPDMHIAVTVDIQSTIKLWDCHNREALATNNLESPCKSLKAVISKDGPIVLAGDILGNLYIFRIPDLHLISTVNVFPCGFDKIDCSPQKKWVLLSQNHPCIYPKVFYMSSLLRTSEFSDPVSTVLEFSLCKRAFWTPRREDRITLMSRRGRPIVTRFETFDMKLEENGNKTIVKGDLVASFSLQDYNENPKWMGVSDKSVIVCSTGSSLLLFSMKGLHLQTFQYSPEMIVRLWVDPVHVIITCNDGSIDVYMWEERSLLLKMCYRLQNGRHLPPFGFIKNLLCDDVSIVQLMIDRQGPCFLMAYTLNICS


Target: T1, F-box/WD40 repeat-containing protein Fbxw24 (mouse), 3xFLAG-tagged, overexpressed in HEK-293T (mouse)
Assay: affinity purification with mass spectrometry; SILAC-IP-MS: 3xFLAG-Fbxw24 in HEK-293T (light) against empty vector (heavy, K6R6); 20 uM MG132 for 6 h before collection; lysis in 150 mM NaCl, 20 mM Tris pH 7.5, 2% Triton X-100; anti-FLAG beads, eluted with 3xFLAG peptide; gel bands cut for LC-MS/MS

Molecule | binding
protein PML (from UniProt P29590 1-882) | binds
ubiquitin-conjugating enzyme E2S (from UniProt Q16763 1-222) | binds
SUMO-activating enzyme subunit 1 (protein, UniProt Q9UBE0 1-346) MVEKEEAGGGISEEEAAQYDRQIRLWGLEAQKRLRASRVLLVGLKGLGAEIAKNLILAGVKGLTMLDHEQVTPEDPGAQFLIRTGSVGRNRAEASLERAQNLNPMVDVKVDTEDIEKKPESFFTQFDAVCLTCCSRDVIVKVDQICHKNSIKFFTGDVFGYHGYTFANLGEHEFVEEKTKVAKVSQGVEDGPDTKRAKLDSSETTMVKKKVVFCPVKEALEVDWSSEKAKAALKRTTSDYFLLQVLLKFRTDKGRDPSSDTYEEDSELLLQIRNDVLDSLGISPDLLPEDFVRYCFSEMAPVCAVVGGILAQEIVKALSQRDPPHNNFFFFDGMKGNGIVECLGPK | binds
SUMO-activating enzyme subunit 2 (protein, UniProt Q9UBT2 1-640) MALSRGLPRELAEAVAGGRVLVVGAGGIGCELLKNLVLTGFSHIDLIDLDTIDVSNLNRQFLFQKKHVGRSKAQVAKESVLQFYPKANIVAYHDSIMNPDYNVEFFRQFILVMNALDNRAARNHVNRMCLAADVPLIESGTAGYLGQVTTIKKGVTECYECHPKPTQRTFPGCTIRNTPSEPIHCIVWAKYLFNQLFGEEDADQEVSPDRADPEAAWEPTEAEARARASNEDGDIKRISTKEWAKSTGYDPVKLFTKLFKDDIRYLLTMDKLWRKRKPPVPLDWAEVQSQGEETNASDQQNEPQLGLKDQQVLDVKSYARLFSKSIETLRVHLAEKGDGAELIWDKDDPSAMDFVTSAANLRMHIFSMNMKSRFDIKSMAGNIIPAIATTNAVIAGLIVLEGLKILSGKIDQCRTIFLNKQPNPRKKLLVPCALDPPNPNCYVCASKPEVTVRLNVHKVTVLTLQDKIVKEKFAMVAPDVQIEDGKGTILISSEEGETEANNHKKLSEFGIRNGSRLQADDFLQDYTLLINILHSEDLGKDVEFEVVGDAPEKVGPKQAEDAAKSITNGSDDGAQPSTSTAQEQDDVLIVDSDEEDSSNNADVSEEERSRKRKLDEKENLSAKRSRIEQKEELDDVIALD | binds

Now from value to molecule:

binding | Molecule
binds | STIP1 homology and U box-containing protein 1 (from UniProt Q9UNE7 1-303) (enzyme)
binds | anaphase-promoting complex subunit 5 (from UniProt Q9UJX4 1-755)
binds | ubiquitin conjugation factor E4A (protein, UniProt Q14139 1-1066) MTDQENNNNISSNPFAALFGSLADAKQFAAIQKEQLKQQSDELPASPDDSDNSVSESLDEFDYSVAEISRSFRSQQEICEQLNINHMIQRIFLITLDNSDPSLKSGNGIPSRCVYLEEMAVELEDQDWLDMSNVEQALFARLLLQDPGNHLINMTSSTTLNLSADRDAGERHIFCYLYSCFQRAKEEITKVPENLLPFAVQCRNLTVSNTRTVLLTPEIYVDQNIHEQLVDLMLEAIQGAHFEDVTEFLEEVIEALILDEEVRTFPEVMIPVFDILLGRIKDLELCQILLYAYLDILLYFTRQKDMAKVFVEYIQPKDPTNGQMYQKTLLGVILSISCLLKTPGVVENHGYFLNPSRSSPQEIKVQEANIHQFMAQFHEKIYQMLKNLLQLSPETKHCILSWLGNCLHANAGRTKIWANQMPEIFFQMYASDAFFLNLGAALLKLCQPFCKPRSSRLLTFNPTYCALKELNDEERKIKNVHMRGLDKETCLIPAVQEPKFPQNYNLVTENLALTEYTLYLGFHRLHDQMVKINQNLHRLQVAWRDAQQSSSPAADNLREQFERLMTIYLSTKTAMTEPQMLQNCLNLQVSMAVLLVQLAIGNEGSQPIELTFPLPDGYSSLAYVPEFFADNLGDFLIFLRRFADDILETSADSLEHVLHFITIFTGSIERMKNPHLRAKLAEVLEAVMPHLDQTPNPLVSSVFHRKRVFCNFQYAPQLAEALIKVFVDIEFTGDPHQFEQKFNYRRPMYPILRYMWGTDTYRESIKDLADYASKNLEAMNPPLFLRFLNLLMNDAIFLLDEAIQYLSKIKIQQIEKDRGEWDSLTPEARREKEAGLQMFGQLARFHNIMSNETIGTLAFLTSEIKSLFVHPFLAERIISMLNYFLQHLVGPKMGALKVKDFSEFDFKPQQLVSDICTIYLNLGDEENFCATVPKDGRSYSPTLFAQTVRVLKKINKPGNMIMAFSNLAERIKSLADLQQQEEETYADACDEFLDPIMSTLMCDPVVLPSSRVTVDRSTIARHLLSDQTDPFNRSPLTMDQIRPNTELKEKIQRWLAERKQQKEQLE
